Laboratory results published in US20190127366A1 (LifeSci Pharmaceuticals, Inc., priority 2015, published 2019).
The match of structure and compound is tentative.

By UniProt entry, the sequences of proteins in these tests, tags left out. Residues count along the entry.
UniProt P00746, 26-253 limits assumed: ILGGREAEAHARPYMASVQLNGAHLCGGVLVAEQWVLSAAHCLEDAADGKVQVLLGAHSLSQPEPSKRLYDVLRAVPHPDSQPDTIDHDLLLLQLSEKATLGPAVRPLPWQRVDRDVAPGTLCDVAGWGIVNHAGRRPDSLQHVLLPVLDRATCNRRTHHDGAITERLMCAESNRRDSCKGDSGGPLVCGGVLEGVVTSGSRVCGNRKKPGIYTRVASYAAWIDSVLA

Biological target: human complement factor D (Homo sapiens, UniProt P00746)
Test: In vitro enzyme inhibition (Z-Lys-SBzl/DTNB absorbance assay)
Conditions: read-out: CFD IC50; Complement Factor D (R&D Systems), substrate Z-Lys-SBzl, A405 nm
Method: The ability of the compounds disclosed herein to inhibit human complement factor D inhibitory activity was quantified according to the 12-step protocol provided below. • 1. Prepare assay buffer: 50 mM Tris/HCl, pH 7.5, 1 M NaCl. • 2. Dilute 10 mM Complement Factor D inhibitor Nafamostat Mesilate (Selleckchem, Catalog #S1386) solution from 10000 μM to 9.77 μM in 100% DMSO, 8 concentrations. Then dilute the serial concentrations of Nafamostat Mesilate 20-fold in assay buffer. • 3. Add 10 μl diluted Nafamostat Mesilate duplicated into each of the inhibitor control well of a 96-well plate (Corning, Catalog #3599). Final concentrations were 50 μM, 25 μM, 12.5 μM, 6.25 μM, 3.125 μM, 0.781 μM, 0.195 μM and 0.049 μM. 0.5% DMSO was in each well finally. • 4. Dilute 20 mM test compounds from 10000 μM to […] in 100% DMSO, 6-fold dilution, 8 concentrations. […] For kinetic reading: Immediately start measuring absorbance (A405 nm) continuously and record data every 30sec for 60 min. • 12. Data analysis • Inhibition activity of compound was evaluated by IC50. IC50 was calculated according the dose-response curve of compound fitted using GraphPadPrism with “log(inhibitor)-response (variable slope)” equation. • % inhibition was calculated by using following equation: […]
The ability of the compounds in Table 2 to inhibit human complement factor D inhibitory activity was determined.

Q: `CC(=O)c1nn(CC(=O)N2[C@H](C(=O)Nc3cccc(Cl)n3)C[C@@H]3CCC[C@@H]32)c2ccc(Br)cc12` was tested. Which IC50 did it give?
A: 1 to 10 µM
